Leishmania in macrophages: 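Cell assay of Leishmania donovani living inside macrophages; the read-out is not stated. Tested at 30 µM. The record gives no direction; compounds that gave an IC50 in retests scored well above the rest, so higher reads as stronger inhibition. Size under these conditions: about 69,000 compounds, about 1,000 of them at 50% or above in at least one test.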
Toxoplasma: 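Assay of Toxoplasma gondii numbers, read through their beta-galactosidase reporter with a colour substrate. Concentration: 10 µM. The record gives no direction; the compounds picked for IC50 retests had high values, so higher reads as fewer parasites. Size under these conditions: about 67,000 compounds, about 260 of them at 50% or above in at least one test.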
ClpP1P2: 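ClpP1P2, Mycobacterium tuberculosis (UniProt P9WPC5 and UniProt P9WPC3). Protease assay of ClpP1P2, read by the AMC dye that it sets free. Tested at 50 µM. Higher reads as stronger inhibition, judged from the few compounds that gave an IC50. Most other retested compounds had strongly negative values. Of about 69,000 compounds tested this way, about 10 (0.015%) reached 50% or more in at least one test.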
T. brucei: 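Whole-parasite assay of Trypanosoma brucei over 72 hours; the read-out is not stated. Compounds at 30 µM. Direction is inferred from retests: higher values go with stronger inhibition. Values scatter widely below zero; nearly all retest evidence comes from the higher of the two concentrations used. Of about 64,000 compounds tested this way, about 940 (1.5%) reached 50% or more in at least one test.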
Pks13 thioesterase: 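Enzyme assay of the thioesterase domain of polyketide synthase 13; the read-out is not stated. Target: Polyketide synthase Pks13, Mycobacterium tuberculosis (UniProt I6X8D2). Tested at 30 µM. Higher reads as stronger inhibition (inferred from which compounds were picked for retests). Of about 67,000 compounds tested this way, about 300 (0.46%) reached 50% or more in at least one test.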

The chains behind the UniProt entries cited, without tags or fusion partners.
UniProt P9WPC5, whole entry: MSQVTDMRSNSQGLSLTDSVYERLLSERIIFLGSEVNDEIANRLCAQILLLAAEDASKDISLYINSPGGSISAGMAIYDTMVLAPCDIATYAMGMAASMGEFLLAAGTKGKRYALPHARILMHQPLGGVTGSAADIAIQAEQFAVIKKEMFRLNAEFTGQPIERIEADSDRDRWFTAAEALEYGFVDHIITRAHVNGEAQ
UniProt P9WPC3, whole entry partner: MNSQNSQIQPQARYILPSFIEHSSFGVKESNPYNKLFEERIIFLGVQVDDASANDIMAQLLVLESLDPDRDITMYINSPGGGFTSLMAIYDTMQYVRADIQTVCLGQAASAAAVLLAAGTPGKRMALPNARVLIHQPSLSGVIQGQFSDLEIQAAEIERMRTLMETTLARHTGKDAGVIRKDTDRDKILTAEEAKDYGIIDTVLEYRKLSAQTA
UniProt I6X8D2, whole entry: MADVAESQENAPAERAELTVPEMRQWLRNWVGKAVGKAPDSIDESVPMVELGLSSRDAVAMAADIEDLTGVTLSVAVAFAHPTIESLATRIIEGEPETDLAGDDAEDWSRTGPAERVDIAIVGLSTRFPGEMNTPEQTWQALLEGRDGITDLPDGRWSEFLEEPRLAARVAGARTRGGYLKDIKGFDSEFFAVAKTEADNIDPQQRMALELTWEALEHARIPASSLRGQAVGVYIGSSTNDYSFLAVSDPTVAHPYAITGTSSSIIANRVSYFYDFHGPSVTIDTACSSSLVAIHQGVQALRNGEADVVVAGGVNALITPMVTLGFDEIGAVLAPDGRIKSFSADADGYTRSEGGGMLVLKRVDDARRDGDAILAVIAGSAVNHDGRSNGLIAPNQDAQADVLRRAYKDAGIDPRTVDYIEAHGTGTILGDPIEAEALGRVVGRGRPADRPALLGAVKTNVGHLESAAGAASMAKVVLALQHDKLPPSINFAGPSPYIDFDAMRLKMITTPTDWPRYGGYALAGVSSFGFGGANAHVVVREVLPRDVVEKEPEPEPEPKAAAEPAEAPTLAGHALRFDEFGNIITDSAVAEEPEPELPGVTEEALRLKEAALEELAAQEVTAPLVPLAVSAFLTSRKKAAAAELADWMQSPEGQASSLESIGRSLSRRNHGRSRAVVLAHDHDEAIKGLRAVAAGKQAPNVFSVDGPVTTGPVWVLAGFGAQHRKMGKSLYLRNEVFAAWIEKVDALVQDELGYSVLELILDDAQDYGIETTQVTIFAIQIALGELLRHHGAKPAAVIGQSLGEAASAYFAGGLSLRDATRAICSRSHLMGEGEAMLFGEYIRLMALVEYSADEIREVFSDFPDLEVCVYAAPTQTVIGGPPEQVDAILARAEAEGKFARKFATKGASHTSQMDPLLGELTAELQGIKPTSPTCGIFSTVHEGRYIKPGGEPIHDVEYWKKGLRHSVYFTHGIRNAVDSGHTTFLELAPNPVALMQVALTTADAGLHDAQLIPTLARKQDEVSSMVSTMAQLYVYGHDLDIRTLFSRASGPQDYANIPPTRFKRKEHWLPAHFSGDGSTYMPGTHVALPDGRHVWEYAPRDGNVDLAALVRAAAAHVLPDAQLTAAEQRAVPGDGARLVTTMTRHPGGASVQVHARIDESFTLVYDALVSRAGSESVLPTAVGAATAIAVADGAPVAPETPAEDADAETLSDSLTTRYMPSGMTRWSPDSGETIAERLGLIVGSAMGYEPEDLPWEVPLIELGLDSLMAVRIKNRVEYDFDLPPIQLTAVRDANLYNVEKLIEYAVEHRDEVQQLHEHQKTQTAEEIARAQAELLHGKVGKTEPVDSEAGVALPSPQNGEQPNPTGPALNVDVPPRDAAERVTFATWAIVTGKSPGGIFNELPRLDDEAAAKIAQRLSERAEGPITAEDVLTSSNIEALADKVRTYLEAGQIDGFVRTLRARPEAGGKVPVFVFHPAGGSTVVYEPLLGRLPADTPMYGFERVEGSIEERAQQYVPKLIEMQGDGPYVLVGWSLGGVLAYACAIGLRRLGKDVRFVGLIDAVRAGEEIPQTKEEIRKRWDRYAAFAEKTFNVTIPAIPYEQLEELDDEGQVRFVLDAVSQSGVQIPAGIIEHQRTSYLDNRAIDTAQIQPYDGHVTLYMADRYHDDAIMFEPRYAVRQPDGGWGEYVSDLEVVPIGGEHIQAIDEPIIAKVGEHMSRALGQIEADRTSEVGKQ

Each number is a percent effect as filed. The record does not define 0% and 100%; most values in the screen are far below 50% and negative numbers occur (in some assays of this library far below -100). The compounds are a random part of those screened. A dash means the value is not listed here; it may have been measured.

Result for O=C(O)C(F)(F)F.O=C(O)C(F)(F)F.O=C(c1n[nH]c2c1CN(C1CCOCC1)CC2)N1CCCC1 was Leishmania in macrophages: 18.44%; Toxoplasma: -9.504%; T. brucei: -4.414%. COc1ccc(-c2noc(C(N)CCSC)n2)cc1OC (centres unmarked) read Leishmania in macrophages: -14.93%; Toxoplasma: 21.87%; ClpP1P2: -4.569%; T. brucei: -30.67%; Pks13 thioesterase: 14.8%. Result for CSCCCN1CCc2nc(N(C)C)nc(N3CCC(O)CC3)c2C1 was Leishmania in macrophages: -23.27%; Toxoplasma: 0.7536%; ClpP1P2: 3.171%; T. brucei: -3.986%; Pks13 thioesterase: -26.98%. Cc1ccc(-c2nc(C3CCN(C(=O)c4ccnn4C)CC3)no2)cn1 gave Leishmania in macrophages: -5.671%; Toxoplasma: -4.386%; ClpP1P2: -15.22%; T. brucei: 9.877%; Pks13 thioesterase: -3.117%. For Cc1nc2sccn2c1CNc1ccc(C(=O)O)cc1 the result was Leishmania in macrophages: 4.305%; Toxoplasma: -1.438%; ClpP1P2: 11.53%; T. brucei: 8.168%; Pks13 thioesterase: -12.85%. Result for CNC(=O)C1CCN(C(=O)NCc2ccc(-c3ccn[nH]3)cc2)CC1 was Leishmania in macrophages: -10.61%; Toxoplasma: -4.043%; ClpP1P2: -37.65%; T. brucei: -16.44%; Pks13 thioesterase: 5.413%. COCCNC(=O)[C@@]12CCO[C@@H]1CCN(Cc1ccc(OC)cc1)C2 gave ClpP1P2: -2.577%; Pks13 thioesterase: -4.404%.

With CC(CCc1ccc(F)c(F)c1)NS(=O)(=O)Cc1ccon1 (centres unmarked) the screen gave Leishmania in macrophages: -8.546%; Toxoplasma: -4.348%; ClpP1P2: 0.4532%; T. brucei: -29.77%; Pks13 thioesterase: -7.99%. CCc1nc2n(n1)CC(NCc1nc3ccccc3o1)CC2 (centres unmarked) read Leishmania in macrophages: 4.227%; Toxoplasma: -1.019%; ClpP1P2: -15%; T. brucei: -2.638%; Pks13 thioesterase: -12.8%. CNc1cc(N2CCCC2CNCc2csc(C(C)C)n2)ncn1 (centres unmarked) gave Leishmania in macrophages: 16.06%; Toxoplasma: 38.85%; ClpP1P2: -17.12%; Pks13 thioesterase: -20.88%. Cn1ccc(CNC(=O)N2CCCC3(C2)OCCO3)c1 read Leishmania in macrophages: 1.448%; Toxoplasma: 7.675%; ClpP1P2: -8.668%; T. brucei: -53.81%; Pks13 thioesterase: 5.741%. For O=C(NCCCO)c1cc(-c2ccc3c(c2)CCO3)n[nH]1 the result was Leishmania in macrophages: -11.72%; Toxoplasma: 15.02%; ClpP1P2: -14.32%; T. brucei: -14.14%; Pks13 thioesterase: -6.494%. Result for Cc1nc(Nc2ncc(C)s2)cc(C2CCCN2)n1.Cl (centres unmarked) was Leishmania in macrophages: 56.27%; Toxoplasma: -16.56%; T. brucei: 99.89%. CC(C)c1noc(CCCC(=O)Nc2cccc(F)c2)n1 gave Leishmania in macrophages: 1.423%; Toxoplasma: 4.368%; ClpP1P2: -5.063%; T. brucei: -10.99%; Pks13 thioesterase: -16.3%.

Result for CCOC(=O)N1CCC(OC)c2ccccc2N(C)C(=O)C1 (centres unmarked) was Leishmania in macrophages: 11.78%; Toxoplasma: -33.08%; ClpP1P2: -4.965%; T. brucei: 3.374%; Pks13 thioesterase: -7.273%. O=C1O[C@@H]2CN(Cc3ccccn3)C[C@@H]2N1CCCc1ccc(F)cc1 gave ClpP1P2: -12.15%; Pks13 thioesterase: 5.56%. Cc1ccc(OCCN(C)Cc2cscn2)cc1 gave Leishmania in macrophages: 17.93%; Toxoplasma: -0.6944%; ClpP1P2: -2.168%; T. brucei: -48.6%; Pks13 thioesterase: -25.38%. COC(=O)c1ccc(Cl)c(S(=O)(=O)Nc2ccc(F)c(C(N)=O)c2)c1 read Leishmania in macrophages: 18.75%; Toxoplasma: 5.192%; ClpP1P2: 6.222%; T. brucei: -31.18%; Pks13 thioesterase: -33.22%.

Some entries from above, unchanged:

| SMILES | Leishmania in macrophages | Toxoplasma | ClpP1P2 | T. brucei | Pks13 thioesterase |
|---|---|---|---|---|---|
| `Cc1nc(Nc2ncc(C)s2)cc(C2CCCN2)n1.Cl` (centres unmarked) | 56.27 | -16.56 | - | 99.89 | - |
| `CNC(=O)C1CCN(C(=O)NCc2ccc(-c3ccn[nH]3)cc2)CC1` | -10.61 | -4.043 | -37.65 | -16.44 | 5.413 |

From ChEMBL document CHEMBL3988442, “University of Dundee, Small-Polar-MMV Screening Library” (2021).